Some results were stated once for a whole list of compounds, not compound by compound.
Key:
Assay type in all cases: in vivo
[1] = test system: Phakopsora pachyrhizi; assay: Asian soybean rust disease controlling effect test; conditions: 100 g/ha, sprayed 1,000 L/ha; soybean Enrei; day 15 to 20 after inoculation
[2] = test system: Erysiphe graminis f. sp tritici; assay: Wheat powdery mildew disease controlling effect test; conditions: 100 g/ha, sprayed 1,000 L/ha; wheat Norin No. 61; day 7 to day 14 after inoculation
[3] = test system: Botrytis cinerea; assay: Cucumber gray mold disease controlling effect test; conditions: 100 g/ha, sprayed 1,000 L/ha; cucumber cotyledon stage; day 4 after inoculation
[4] = test system: Zymoseptoria tritici; assay: Wheat septoria leaf blotch disease controlling effect test; conditions: 100 g/ha, sprayed 1,000 L/ha; wheat Norin No. 61; day 27 to day 33 after inoculation
[5] = test system: Puccinia recondita; assay: Wheat brown rust disease controlling effect test; conditions: 100 g/ha, sprayed 1,000 L/ha; wheat Norin No. 61; day 10 to day 14 after inoculation
[6] = test system: Pseudoperonospora cubensis; assay: Cucumber downy mildew disease controlling effect test; conditions: 100 g/ha, sprayed 1,000 L/ha; cucumber cotyledon stage; day 7 after inoculation

In the case of `CC1(C)Cc2cc(Oc3ccccc3)ccc2C1(O)Cn1cncn1` (racemic) [Compound I-4], the controlling rate [1] is reported as at least 80%, the controlling rate [2] is reported as at least 80% and the controlling rate [3] is reported as at least 80%.
Work on `CC1(C)Cc2cc(Oc3ccccc3Cl)ccc2C1(O)Cn1cncn1` (racemic) [Compound I-5] yielded a controlling rate [1] of at least 80% and a controlling rate [4] of at least 80%.
For `CC1(C)Cc2cc(Oc3cccc(Cl)c3)ccc2C1(O)Cn1cncn1` (racemic) [Compound I-6], the controlling rate [1] was at least 80% and the controlling rate [3] was at least 80%.
With `CC1(C)Cc2cc(Oc3ccc(Cl)cc3Cl)ccc2C1(O)Cn1cncn1` (racemic) [Compound I-8] the controlling rate [3] was at least 80%.
For `CC1(C)Cc2cc(Oc3ccc(Cl)c(Cl)c3)ccc2C1(O)Cn1cncn1` (racemic) [Compound I-9], the controlling rate [1] was at least 80%.
`CC1(C)Cc2cc(Oc3ccc(Br)cc3)ccc2C1(O)Cn1cncn1` (racemic) [Compound I-10] showed a controlling rate [1] of at least 80%, a controlling rate [5] of at least 80% and a controlling rate [2] of at least 80%. It also gave a controlling rate [3] of at least 80% and a controlling rate [4] of at least 80%.
`CC1(C)Cc2cc(Oc3ccc(F)cc3)ccc2C1(O)Cn1cncn1` (racemic) [Compound I-11] was tested, and the controlling rate [1] was at least 80%, the controlling rate [3] was at least 80% and the controlling rate [4] was at least 80%.
For `CC1(C)Cc2cc(Oc3ccc(F)c(F)c3)ccc2C1(O)Cn1cncn1` (racemic) [Compound I-12], the controlling rate [1] was at least 80%, the controlling rate [5] was at least 80% and the controlling rate [3] was at least 80%. The controlling rate [4] was at least 80%.
`CC1(C)Cc2cc(Oc3ccc(OC(F)(F)F)cc3)ccc2C1(O)Cn1cncn1` (racemic) [Compound I-13] was tested, and the controlling rate [1] was at least 80%.
`CC1(C)Cc2cc(Oc3ccc(Cl)nc3)ccc2C1(O)Cn1cncn1` (racemic) [Compound I-15] showed a controlling rate [2] of at least 80%.
`CC1(C)Cc2cc(Oc3ccc(Cl)c(F)c3)ccc2C1(O)Cn1cncn1` (racemic) [Compound I-24] showed a controlling rate [1] of at least 80%, a controlling rate [5] of at least 80% and a controlling rate [2] of at least 80%. It also gave a controlling rate [4] of at least 80%.
Compound `CC1(C)Cc2cc(Oc3ccc(C#N)cc3)ccc2C1(O)Cn1cncn1` (racemic) [Compound I-25] has a controlling rate [1] of at least 80% and a controlling rate [4] of at least 80%.
For `CC1(C)Cc2cc(Oc3ccc(I)cc3)ccc2C1(O)Cn1cncn1` (racemic) [Compound I-28], the controlling rate [1] was at least 80%, the controlling rate [2] was at least 80% and the controlling rate [3] was at least 80%. The controlling rate [4] was at least 80%.
For `CCC1(CC)Cc2cc(Oc3ccc(Cl)cc3)ccc2C1(O)Cn1cncn1` (racemic) [Compound I-29], the controlling rate [2] was at least 80% and the controlling rate [4] was at least 80%.
With `CCCC1(CCC)Cc2cc(Oc3ccc(Cl)cc3)ccc2C1(O)Cn1cncn1` (racemic) [Compound I-30] the controlling rate [6] was at least 80%.
`CC1(C)Cc2cc(Oc3ccc(F)cc3F)ccc2C1(O)Cn1cncn1` (racemic) [Compound I-31] showed a controlling rate [1] of at least 80% and a controlling rate [4] of at least 80%.
`CC1Cc2cc(Oc3ccc(Cl)cc3)ccc2C1(O)Cn1cncn1` (single isomer, unassigned) [Compound I-32, 1-((1H-1,2,4-triazole-1-yl)methyl)-5-(4-chlorophenoxy)-2-methyl-2,3-dihydro-1H-indene-1-ol] showed a controlling rate [1] of at least 80%, a controlling rate [5] of at least 80% and a controlling rate [2] of at least 80%. The controlling rate [3] was at least 80% and the controlling rate [4] was at least 80%.
`CCC1Cc2cc(Oc3ccc(Cl)cc3)ccc2C1(O)Cn1cncn1` (single isomer, unassigned) [Compound I-35] was tested, and the controlling rate [1] was at least 80%, the controlling rate [5] was at least 80% and the controlling rate [2] was at least 80%. The controlling rate [3] was at least 80% and the controlling rate [4] was at least 80%.
For `CC1(C)Cc2cc(Oc3ccc(Cl)cc3)ccc2C1(O)Cn1cncn1` (centres unmarked) [Compound I-7, 1-((1H-1,2,4-triazole-1-yl)methyl)-5-(4-chlorophenoxy)-2,2-dimethyl-2,3-dihydro-1H-indene-1-ol], the controlling rate [1] was at least 80%, the controlling rate [5] was at least 80% and the controlling rate [2] was at least 80%. The controlling rate [3] was at least 80% and the controlling rate [4] was at least 80%.
`OC1(Cn2cncn2)c2ccc(Oc3ccc(Cl)cc3)cc2CC12CC2` (centres unmarked) [Compound I-17, 1′-((1H-1,2,4-triazole-1-yl)methyl)-5′-(4-chlorophenoxy)-1',3′-dihydrospiro[cyclopropane-1,2′-indene]-1′-ol] gave a controlling rate [6] of at least 80% and a controlling rate [2] of at least 80%.
`OC1(Cn2cncn2)CCc2cc(Oc3ccc(Cl)cc3)ccc21` (centres unmarked) [Compound I-27, 1-((1H-1,2,4-triazole-1-yl)methyl)-5-(4-chlorophenoxy)-2,3-dihydro-1H-indene-1-ol] gave a controlling rate [5] of at least 80%, a controlling rate [2] of at least 80% and a controlling rate [3] of at least 80%. The controlling rate [4] was at least 80%.
